In this experiment the target is T1, GFP-ALDH1A3 full length (mouse) (UniProt Q9JHW9).
T1 sequence: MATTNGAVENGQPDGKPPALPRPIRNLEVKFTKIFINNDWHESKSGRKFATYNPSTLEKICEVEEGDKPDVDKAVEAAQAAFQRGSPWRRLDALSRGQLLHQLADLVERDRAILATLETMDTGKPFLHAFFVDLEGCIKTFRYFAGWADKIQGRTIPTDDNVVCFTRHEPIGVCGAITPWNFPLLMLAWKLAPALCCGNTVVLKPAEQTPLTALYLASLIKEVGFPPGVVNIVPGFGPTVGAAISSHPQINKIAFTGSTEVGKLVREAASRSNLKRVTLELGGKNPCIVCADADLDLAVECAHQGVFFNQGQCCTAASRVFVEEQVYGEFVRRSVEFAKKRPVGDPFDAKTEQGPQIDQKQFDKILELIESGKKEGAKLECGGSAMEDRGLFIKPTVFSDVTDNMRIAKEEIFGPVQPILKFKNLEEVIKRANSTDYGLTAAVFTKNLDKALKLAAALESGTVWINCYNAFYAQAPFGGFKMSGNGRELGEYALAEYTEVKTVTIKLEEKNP
Briefly: co-IP; HEK293 cells co-transfected with GFP-ALDH1A3 full length (or GFP as control), Flag-ALDH1A3 full length and 2.5 or 5 µg Flag-ALDH1A3△ plasmid; lysates immunoprecipitated with GFP antibody; blots with anti-GFP or anti-FLAG.

Results are given in words; binding and its absence hold for the method and conditions named. Binding seen in cells or lysates may run through a third protein. Binding can be weak; no strength is given. Where a sequence is shown, tags or fusion partners need not be part of it.

With Flag-ALDH1A3△ (mouse), the binding result is on record as “binds”.

(Values after PMC5122457.)
